Measurements reported in PubChem BioAssay AID1671190 (National Center for Advancing Translational Sciences (NCATS), 2021).
Among all 580,000 compounds or so, about 6,100 (1.1%) were called active. This list was built around the results that the source calls inconclusive (neither active nor inactive); the mix of calls is not that of the screen. Calls come from the whole dose curve; as a rule, active = well fitted inhibition curve with a large enough effect; inconclusive = small, poorly fitted or top-dose-only effect, or another doubt; inactive = no such curve, though single readings can be large or run the other way. Potencies of inconclusive entries are doubtful fits and often do not repeat.

The chains behind the UniProt entries cited, without tags or fusion partners. Where a name states a change or a piece, a line headed by the entry shows the natural chain unless it says otherwise.
UniProt P18054: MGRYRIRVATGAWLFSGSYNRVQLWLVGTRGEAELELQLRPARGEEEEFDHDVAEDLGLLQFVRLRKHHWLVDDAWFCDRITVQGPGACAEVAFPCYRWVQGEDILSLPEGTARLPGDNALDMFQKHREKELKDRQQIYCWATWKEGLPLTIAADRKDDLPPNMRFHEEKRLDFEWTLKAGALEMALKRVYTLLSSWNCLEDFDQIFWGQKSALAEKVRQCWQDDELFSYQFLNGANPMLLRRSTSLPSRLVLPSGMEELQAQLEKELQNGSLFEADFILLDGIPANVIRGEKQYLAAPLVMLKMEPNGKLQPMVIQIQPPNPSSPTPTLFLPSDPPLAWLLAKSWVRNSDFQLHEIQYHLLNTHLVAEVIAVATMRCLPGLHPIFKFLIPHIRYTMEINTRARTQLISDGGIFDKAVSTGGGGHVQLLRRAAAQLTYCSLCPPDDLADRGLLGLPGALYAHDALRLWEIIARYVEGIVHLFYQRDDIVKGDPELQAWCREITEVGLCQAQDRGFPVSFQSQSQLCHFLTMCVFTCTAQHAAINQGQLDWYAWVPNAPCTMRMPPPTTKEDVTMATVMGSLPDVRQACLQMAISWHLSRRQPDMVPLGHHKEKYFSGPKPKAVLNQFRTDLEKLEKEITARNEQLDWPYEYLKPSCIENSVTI

These compounds were tested against Polyunsaturated fatty acid lipoxygenase ALOX12 (Homo sapiens) (UniProt P18054) (assay: Primary qHTS assay for inhibitors of human arachidonate 12S-lipoxygenase (ALOX12): Round 2). Settings: purified 12hLO, xylenol orange hydroperoxide absorbance; activity change, negative = inhibition: at 108 µM (top of the series) unless noted.
How it was run: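 Purified human 12hLO at 150 nM in 25 mM Hepes, 0.01% Triton X-100, pH 7.0, preincubated 15 min at room temperature with compound. Reaction started with 40 uM arachidonic acid, 30 min at room temperature. Hydroperoxide measured by Fe-xylenol orange, 573/405 nm absorbance ratio.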
% is set by controls: 0 for no effect and ±100 for the full control effect; potency is the fitted concentration of half-maximal effect.

Row | SMILES | Potency | activity change, negative = inhibition
1 | CN1CCN(CCCNC(=O)Cn2c(-c3cccs3)cc3ccccc32)CC1 | inactive | –
2 | CCNC(=O)C1CCN(Cc2nnnn2-c2ccccc2)CC1 | inactive | –
3 | Cc1cc(=O)oc2cc(OCC(=O)N3CCc4sccc4C3c3ccccc3)ccc12 (stereo not drawn) | inconclusive: 44.7 µM [inhibitor, partial curve, poor fit] | –
4 | COc1ccccc1/C=N/Nc1nccnc1Cl | inconclusive: 5.62 µM [inhibitor, full curve, poor fit] | –
5 | CC(C)=CCC/C(C)=C/C=N/NC(=O)c1cccc([N+](=O)[O-])c1 | inconclusive: 39.8 µM [inhibitor, partial curve] | –
6 | COCc1cnc2c(c1SCc1ccc(C)cc1)c(=O)n(C)c(=O)n2C | inconclusive: 15.8 µM [inhibitor, partial curve, poor fit] | –
7 | N#Cc1cc2c(=O)n3ccccc3nc2n(-c2ccc(Cl)cc2)c1=O | inactive | –
8 | CN(Cc1ccc(Cl)c(Cl)c1)C(=O)c1cc2ccccc2oc1=O | inconclusive: 0.199 µM [inhibitor, full curve, poor fit] | –
9 | Cc1ccc(C)n1C1C(=O)N(Cc2ccc(Cl)nc2)c2ccccc21 (stereo not drawn) | inconclusive: 14.1 µM [inhibitor, partial curve] | –
10 | CCCCOCCOc1nc(-c2ccc(C(=O)O)c(F)c2)sc1C | inactive | –
11 | CN1CCCN(C(=O)C2(Oc3ccc4ncccc4c3)CCNCC2)CC1 | inconclusive: 22.4 µM [inhibitor, full curve] | –
12 | CCc1ccc(NC(=O)C2CCN(S(=O)(=O)c3c(C)noc3/C=C/N(C)C)CC2)cc1 | inconclusive: 50.1 µM [inhibitor, partial curve, poor fit] | –
13 | CC(SC1CCCC1)C(=O)Nc1cccc(Cl)c1 (stereo not drawn) | inconclusive: 44.7 µM [inhibitor, partial curve] | –
14 | CCCSc1ccc([C@@H]2[C@H]3C(=O)N(CC)C(=O)[C@H]3[C@]3(C(=O)OC)CCCCN23)cc1OC | inconclusive: 35.5 µM [inhibitor, partial curve, poor fit] | –
15 | CC(C)(C)OC(=O)COc1ccc2c(-c3cc4ccccc4oc3=O)cc(=O)oc2c1 | inactive | –
16 | CC(Cc1cccs1)NC(=O)Nc1ccc(Cl)c(Cl)c1 (stereo not drawn) | inconclusive: 141 µM [inhibitor, single point] | –
17 | N#Cc1c(NC(=O)CSc2nc(N)cc(=O)[nH]2)sc2c1CCCC2 | inactive | –
18 | C=CCn1c(SCC(=O)NC2CCCC2)nc2c([nH]c3ccccc32)c1=O | inconclusive: 44.7 µM [inhibitor, single point] | –
19 | Cc1cccc(NC(=O)CCSc2nnc(Cc3ccccc3)o2)c1 | inconclusive: 112 µM [inhibitor, partial curve, poor fit] | –
20 | COCCOC(=O)c1c(NC(=O)CN2CCOCC2)sc(C(N)=O)c1C | inactive | –
21 | COC(=O)c1sccc1NC(=O)CNC(=O)c1ccccc1 | inactive | –
22 | CC(=O)Nc1cc(C(=O)N(C)Cc2ccco2)ccc1Sc1ccc(C)cc1 | inconclusive: 141 µM [inhibitor, single point] | –
23 | COc1cccc(/C=N/n2c(=S)n(C)c3ccccc32)c1OC | inconclusive: 3.55 µM [inhibitor, full curve, poor fit] | –

Row | SMILES | Potency | activity change, negative = inhibition
24 | Fc1ccccc1NC(=S)Nc1cccnc1 | inactive | –
25 | CC(CN1CCN(CC(C)C(=O)c2ccccc2)CC1)C(=O)c1ccccc1 (stereo not drawn) | inconclusive: 44.7 µM [inhibitor, partial curve, poor fit] | –
26 | CC(C)(C)c1ccc(CNC(=O)C2CCCN2C(=O)Nc2ccccc2)cc1 (stereo not drawn) | inconclusive: 39.8 µM [inhibitor, single point] | –
27 | CC1(C)CC2(CC(c3ccccc3)c3ccc(O)cc3O2)NC(=S)N1 (stereo not drawn) | inconclusive: 44.7 µM [inhibitor, partial curve, poor fit] | –
28 | COc1cc(C(=O)N/N=C(\C)Cc2ccccc2)cc(OC)c1OC | inactive | –
29 | COc1ccc(-n2sc3ccc(F)cc3c2=O)cc1 | active: 1.12 µM | –
30 | O=C(O)c1c2c(nc3ccccc13)/C(=C/c1ccc(OC(F)F)cc1)CCC2 | inconclusive: 50.1 µM [inhibitor, partial curve, poor fit] | –
31 | COc1ccc2c(CSc3nnnn3-c3ccccc3)cc(=O)oc2c1 | inactive | –
32 | O=C(Nc1ccc(Oc2ccccc2)cc1)N[C@H]1CO[C@H]2[C@@H]1OC[C@H]2OC(=O)Nc1cccc2ccccc12 | inconclusive: 5.01 µM [inhibitor, full curve, poor fit] | –
33 | Cc1cc(O)c(-c2cc(C(=O)Nc3cccnc3)[nH]n2)cc1C | inactive | –
34 | COc1ccc(OC)c(C2CC(=O)N3CN(c4ccccc4F)CSC3=C2C#N)c1 (stereo not drawn) | inconclusive: 3.55 µM [inhibitor, full curve, poor fit] | –
35 | CCOc1cc(-c2nc(-c3ccc(-c4ccc(C)cc4)nc3OC)no2)cc(OCC)c1OCC | inactive | –
36 | O=C(c1ccc2c(c1)CCN2S(=O)(=O)c1ccc(Cl)cc1)N1CCCC1 | inconclusive: 39.8 µM [inhibitor, partial curve] | –
37 | CN(C)CCCC(=O)c1ccc2c(c1)OCO2 | inactive | –
38 | COc1ccc(/C=C/C(=O)Oc2ccc3ccccc3c2)cc1 | inactive | –
39 | COc1cccc(CC(=O)N2CCCC3(C2)NC(=O)N(Cc2ccc(Cl)cc2)C3=O)c1 (stereo not drawn) | inconclusive: 28.2 µM [inhibitor, full curve, poor fit] | –
40 | Cc1cc(C(=O)N2CCN(S(=O)(=O)c3ccc(C(C)C)cc3)CC2)c(C)n1C(C)C | inconclusive: 79.4 µM [inhibitor, single point] | –
41 | O=C(O)Cn1cc(C(C(=O)O)N2CCN(Cc3ccccc3)CC2)c2ccccc21 (stereo not drawn) | inconclusive: 25.1 µM [inhibitor, partial curve, poor fit] | –
42 | O=C(Cn1c(=O)[nH]c2ccccc2c1=O)N1CCN(Cc2ccc3c(c2)OCO3)CC1 | inactive | –
43 | Cc1cccc(CCNC(=O)c2cc3ccccn3n2)c1 | inactive | –
44 | Cc1cc(C)cc(N(CC(=O)Nc2cccc(C)c2C)S(=O)(=O)c2c(C)[nH]c(=O)[nH]c2=O)c1 | inconclusive: 4.47 µM [inhibitor, full curve, poor fit] | –
45 | Cc1nc([N+](=O)[O-])c(N2CCN(Cc3ccccc3)CC2)n1Cc1ccccc1 | inconclusive: 126 µM [inhibitor, partial curve, poor fit] | –
46 | COc1ccc(-c2ccc3c(N)c(C(=O)NC(C)C)sc3n2)cc1OC | inconclusive: 39.8 µM [inhibitor, partial curve, poor fit] | –

Row | SMILES | Potency | activity change, negative = inhibition
47 | Cc1ccc(-n2nc3c(=O)n(CC(=O)Nc4ccccc4F)nc(C)c3c2C)c(C)c1 | inconclusive: 50.1 µM [inhibitor, partial curve, poor fit] | –
48 | CCO[C@H]1OC(C(=O)N2CCN(Cc3ccc4c(c3)OCO4)CC2)=C[C@@H](C(C)(C)C)[C@@H]1CCCO | inactive | –
49 | O=C(Nc1ccc2oc(-c3cccc4ccccc34)nc2c1)c1ncn[nH]1 | inconclusive: 100 µM [inhibitor, partial curve, poor fit] | –
50 | COC(=O)c1c(C)[nH]c(C(=O)N2CCCC2c2cc(OC)ccc2OC)c1C (stereo not drawn) | inactive | –
51 | Cc1ccc(OCc2cc(C(=O)N(C)Cc3ccccn3)no2)cn1 | inactive | –
52 | Cc1ccc(/C=N/NC(=O)C(O)(c2ccccc2)c2ccccc2)s1 | inconclusive: 35.5 µM [inhibitor, partial curve, poor fit] | –
53 | COc1ccc(-c2cc(N3CCN(CCO)CC3)n3nccc3n2)cc1 | inconclusive: 1.78 µM [inhibitor, partial curve, poor fit] | –
54 | COc1ccc(CN2CCCCCC2)cc1OC | active: 2 µM | –
55 | CSc1nnc(NC(=O)C23CC4CC(CC(C4)C2)C3)s1 | inactive | –
56 | COc1ccc(/C=C2\SC(=NCc3ccccc3)N(Cc3ccccc3)C2=O)cc1OC | inconclusive: 44.7 µM [inhibitor, partial curve, poor fit] | –
57 | CC(C)CN1CC[C@@]2(CCCN(C(=O)c3cnccn3)C2)C1 | inconclusive: 28.2 µM [inhibitor, single point] | –
58 | CSc1ccc(CN2CCC(CO)(Cc3ccc(Cl)cc3)CC2)cc1 | inconclusive: 44.7 µM [inhibitor, partial curve, poor fit] | –
59 | COC(=O)c1ccc(-c2cc(C(=O)O)c3cc4c(cc3n2)OCCO4)cc1 | inconclusive: 39.8 µM [inhibitor, single point] | –
60 | Clc1c2ccccc2c(/C=N/N2CCCCC2)c2ccccc12 | inactive | –
61 | N#C/C(C(=O)Oc1ccccc1)=C1\C=CC=CN1 | inconclusive: 44.7 µM [inhibitor, partial curve, poor fit] | –
63 | O=C1NC[C@H](CCCCN2C[C@H](Cc3ccc(O)cc3)N(CCC3CCCCC3)C(=O)C2=O)N(CCc2ccc(O)cc2)C1=O | inconclusive: 44.7 µM [inhibitor, partial curve, poor fit] | –
64 | CCCCOc1c(Cl)cc(C(=O)N(Cc2ccc(C)o2)C2CCS(=O)(=O)C2)cc1Cl (stereo not drawn) | inactive | –
65 | Cc1ccc(NC(=O)CN(C)C(=O)C2CSC3(C)CCC(=O)N23)cc1 (stereo not drawn) | inconclusive: 44.7 µM [inhibitor, partial curve, poor fit] | –
66 | CCNCC(O)COCc1ccccc1OC (stereo not drawn) | – | inconclusive: -34.2% [inhibitor]
67 | Cc1nc(SCC(=O)Nc2cccnc2Cl)nc(C)c1C | inactive | –
68 | CCOC(=O)Cc1c(C)nc(SC)[nH]c1=O | inconclusive: 50.1 µM [inhibitor, partial curve, poor fit] | –

Whole records from above:
N#Cc1cc2c(=O)n3ccccc3nc2n(-c2ccc(Cl)cc2)c1=O is listed with Potency: inactive
CSc1ccc(CN2CCC(CO)(Cc3ccc(Cl)cc3)CC2)cc1 is listed with Potency: inconclusive: 44.7 µM [inhibitor, partial curve, poor fit]
Cc1cc(C(=O)N2CCN(S(=O)(=O)c3ccc(C(C)C)cc3)CC2)c(C)n1C(C)C is listed with Potency: inconclusive: 79.4 µM [inhibitor, single point]
